Assay results published in paper PMC5065529, “Wnt Signalosome Assembly by DEP Domain Swapping of Dishevelled” (Molecular Cell, 2016).

Protein sequences, listed by entry. Tags and fused reporters are not part of them. Lines headed by an entry give the natural chain unless they say otherwise; changes in a name come on top.
UniProt Q13467: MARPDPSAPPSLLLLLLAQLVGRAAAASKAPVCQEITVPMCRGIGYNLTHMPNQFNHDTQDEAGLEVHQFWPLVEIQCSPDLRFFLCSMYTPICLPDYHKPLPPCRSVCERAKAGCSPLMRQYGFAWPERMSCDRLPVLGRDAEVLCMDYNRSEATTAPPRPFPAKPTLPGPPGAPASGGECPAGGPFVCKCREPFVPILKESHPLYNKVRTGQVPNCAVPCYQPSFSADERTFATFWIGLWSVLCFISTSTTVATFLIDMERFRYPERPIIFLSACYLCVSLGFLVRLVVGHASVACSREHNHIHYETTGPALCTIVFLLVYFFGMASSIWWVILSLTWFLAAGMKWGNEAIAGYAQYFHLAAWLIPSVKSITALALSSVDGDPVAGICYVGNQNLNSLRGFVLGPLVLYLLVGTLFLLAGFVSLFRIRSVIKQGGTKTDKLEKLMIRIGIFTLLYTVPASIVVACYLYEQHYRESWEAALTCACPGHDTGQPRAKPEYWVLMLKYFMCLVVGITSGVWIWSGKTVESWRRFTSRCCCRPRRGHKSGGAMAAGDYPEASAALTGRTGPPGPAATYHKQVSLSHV

Tests used:
[1] = target: SNAP-FZD5 with a mutation of V432 (human) (UniProt Q13467); test: FZD-dependent membrane translocation (plasma membrane recruitment) assay, confocal microscopy; GFP-tagged DVL2, DEP or PDZ co-expressed with SNAP-FZD5 (WT or mutant) in transfected cells (HeLa in the legends, HEK293T in the text), fixed and stained with α-SNAP; with or without Wnt3a-conditioned medium for 30 min
[2] = target: SNAP-FZD5 with a mutation of I429 (human) (UniProt Q13467); test: as above

B1: DEP_(414–507)-GFP, minimal DEP domain of DVL2 (domain or fragment, UniProt O14641 414-507)
chain: GRGLSVHTDMASVTKAMAAPESGLEVRDRMWLKITIPNAFLGSDVVDWLYHHVEGFPERREARKYASGLLKAGLIRHTVNKITFSEQCYYVFGD
For B1, the binding [1] was “binds” and the binding [2] was “binds”.

Results are given in words; binding and its absence hold for the method and conditions named. Binding calls can cover weak binding; strength is not graded here. Where a sequence is shown, tags or fusion partners need not be part of it.
